# Results: article PMC7570497 (Molecules, 2020)
# Strings that start with PEPTIDE1 are HELM notation: dots part the residues, brackets hold end groups and non-standard residues.
# Assay: general procedure: Fmoc solid-phase peptide synthesis; MBHA resin (100–200 mesh, 0.8 mM/g); TBTU or DMT/NMM/TsO− with DIEA
# Conditions: whole synthesis
Substance,crude yield [%],difficulty met
"PEPTIDE1{[Dmt].[Tic].[dK].F.F.D.[am]}$PEPTIDE1,PEPTIDE1,3:R3-6:R3$$$V2.0",28,
"PEPTIDE1{[Dmt].[Tic].[D-Dap].F.F.D.[am]}$PEPTIDE1,PEPTIDE1,3:R3-6:R3$$$V2.0",18,
"PEPTIDE1{[Dmt].[Tic].[dK].F.[D-2Nal].D.[am]}$PEPTIDE1,PEPTIDE1,3:R3-6:R3$$$V2.0",25,
"PEPTIDE1{[Dmt].[Tic].[dK].F.[2,4F2-Phe].D.[am]}$PEPTIDE1,PEPTIDE1,3:R3-6:R3$$$V2.0",25,
"PEPTIDE1{[Dmt].[Tic].[dK].F.D.[am]}$PEPTIDE1,PEPTIDE1,3:R3-5:R3$$$V2.0",11,"In case of analog 5, the cyclic dimer was the main product."
"PEPTIDE1{[Dmt].[Tic].[dK].F.D.[Tic].[Dmt].[am]}$PEPTIDE1,PEPTIDE1,3:R3-5:R3$$$V2.0",19,
